The target of assay [1] is DICER-LIKE 1 (DCL1), untagged recombinant (Arabidopsis thaliana) (UniProt Q9SP32). The experiment in a line: SPR; Biacore T100; about 1750 RU of DCL1 immobilised via amine groups on a CM5 chip, no RNA; SE and its mutants injected for 70 s at 20 nM; 20 mM Tris-HCl (pH 7.0), 50 mM NaCl, 2 mM β-ME, 0.005% surfactant P20; both purified. On the technique in general: Surface plasmon resonance follows binding to a sensor surface in real time, without labels.

Sequences of proteins named here, by UniProt entry; tags and fusion partners are left off.
UniProt Q9SP32: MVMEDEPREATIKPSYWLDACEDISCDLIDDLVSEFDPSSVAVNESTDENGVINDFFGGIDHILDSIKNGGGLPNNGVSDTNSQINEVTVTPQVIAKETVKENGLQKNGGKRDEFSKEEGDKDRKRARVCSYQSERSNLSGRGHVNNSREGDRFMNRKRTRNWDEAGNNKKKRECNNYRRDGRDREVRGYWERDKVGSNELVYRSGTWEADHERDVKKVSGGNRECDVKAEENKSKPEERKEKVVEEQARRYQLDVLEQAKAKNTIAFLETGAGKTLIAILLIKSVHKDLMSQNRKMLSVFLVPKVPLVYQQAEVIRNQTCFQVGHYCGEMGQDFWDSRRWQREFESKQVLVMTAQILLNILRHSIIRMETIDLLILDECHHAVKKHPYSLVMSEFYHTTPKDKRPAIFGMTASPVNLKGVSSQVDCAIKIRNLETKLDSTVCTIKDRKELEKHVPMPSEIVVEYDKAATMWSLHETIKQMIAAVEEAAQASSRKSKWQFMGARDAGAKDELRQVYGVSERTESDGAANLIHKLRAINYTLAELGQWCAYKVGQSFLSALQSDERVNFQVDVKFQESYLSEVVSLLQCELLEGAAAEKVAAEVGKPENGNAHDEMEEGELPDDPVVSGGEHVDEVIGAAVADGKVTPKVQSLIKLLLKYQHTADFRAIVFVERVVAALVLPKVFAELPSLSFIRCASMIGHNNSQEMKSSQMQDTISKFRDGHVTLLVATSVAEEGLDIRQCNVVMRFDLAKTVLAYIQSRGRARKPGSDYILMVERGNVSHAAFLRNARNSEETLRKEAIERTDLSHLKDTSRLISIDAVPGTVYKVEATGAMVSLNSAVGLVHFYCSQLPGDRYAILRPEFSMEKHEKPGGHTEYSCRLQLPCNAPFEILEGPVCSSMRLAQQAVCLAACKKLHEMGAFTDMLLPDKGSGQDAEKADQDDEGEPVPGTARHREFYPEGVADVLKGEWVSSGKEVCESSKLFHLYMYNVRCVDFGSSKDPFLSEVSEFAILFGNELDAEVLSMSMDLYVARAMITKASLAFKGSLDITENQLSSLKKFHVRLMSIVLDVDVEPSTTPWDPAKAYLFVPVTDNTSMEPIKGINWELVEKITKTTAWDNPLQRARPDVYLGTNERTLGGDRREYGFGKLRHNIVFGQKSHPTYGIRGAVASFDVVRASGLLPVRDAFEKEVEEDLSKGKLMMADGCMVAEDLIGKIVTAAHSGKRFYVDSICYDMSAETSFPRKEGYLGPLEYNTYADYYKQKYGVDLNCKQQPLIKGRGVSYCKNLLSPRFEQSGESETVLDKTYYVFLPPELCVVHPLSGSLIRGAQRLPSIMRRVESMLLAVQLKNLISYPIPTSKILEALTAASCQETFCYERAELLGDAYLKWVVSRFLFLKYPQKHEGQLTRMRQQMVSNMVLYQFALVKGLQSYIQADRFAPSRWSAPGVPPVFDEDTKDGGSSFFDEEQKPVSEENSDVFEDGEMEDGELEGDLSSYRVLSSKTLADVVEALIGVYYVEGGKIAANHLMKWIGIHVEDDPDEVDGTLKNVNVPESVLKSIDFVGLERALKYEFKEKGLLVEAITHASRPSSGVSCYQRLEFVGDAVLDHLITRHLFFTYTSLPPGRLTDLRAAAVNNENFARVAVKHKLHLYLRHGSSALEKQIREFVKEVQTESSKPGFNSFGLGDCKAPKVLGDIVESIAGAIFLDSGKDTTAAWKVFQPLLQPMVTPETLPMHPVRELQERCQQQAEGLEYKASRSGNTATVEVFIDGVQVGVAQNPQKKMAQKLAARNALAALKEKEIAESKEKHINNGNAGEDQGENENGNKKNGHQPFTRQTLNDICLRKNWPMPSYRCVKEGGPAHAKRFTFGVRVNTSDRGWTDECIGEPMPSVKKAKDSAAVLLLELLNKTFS

Assay [2] has the same target. The experiment in a line: SPR; Biacore T100; about 1200 RU of DCL1 (injected at 16 nM) bound beforehand to 60 RU of biotin-labelled forked RNA on an SA chip; SE and its mutants then injected for 70 s at 20 nM; 20 mM Tris-HCl (pH 7.0), 50 mM NaCl, 2 mM β-ME, 0.005% surfactant P20; RU of mutants normalised to the RU of DCL1 bound; both purified.

Results are given in words; binding and its absence hold for the method and conditions named. Where a sequence is shown, tags or fusion partners need not be part of it.

B1: SEΔ497–547, hexahistidine-tagged SERRATE lacking the ZnF domain (protein, UniProt Q9ZVD0)
chain: MADVNLPPSDSVDNRLPEKSTSSSPPPPPPSSSLPQQEQEQDQQQLPLRRERDSRERRDERDIERPPPNRRERDRSPLPPPRRDYKRRPSLSPPPPYRDRRHSPPQRRSPPQKRYRRDDNGYDGRRGSPRGGYGPPDRRFGYDHGGGYDREMGGRPGYGDERPHGRFMGRYQDWEGGRGGYGDASNSGNPQRDGLMSYKQFIQELEDDILPSEAERRYQEYKSEYITTQKRAFFNTHKEEDWLKNKYHPTNLLSVIERRNDLAQKVAKDFLLDLQSGTLDLGPAVTALNKSGRTSEPNSEDEAAGVGKRKRHGMGGAKENELLSAAPKAPSFTSDPKRILTDVEQTQALVRKLDSEKKIEENVLQGSETEKSGREKLHSGSTGPVVIIRGLTSVKGLEGVELLDTLVTYLWRVHGLDYYGKVETNEAKGLRHVRAEGKVSDAKGDENESKFDSHWQERLKGQDPLEVMAAKEKIDAAATEALDPHVRKIRDEKYGWNAPGGQPATQQSGPRDRPIRRKPSMENRLRDDRGGRRERDGRANGNDRNDRSEDQQRGDNDGGNPGEVGYDAFGGQGGVHVPPFLSDINPPPMLMPVPGAGPLGPFVPAPPEVAMQMFRDPSGPNPPFEGSGRGGPAPFLLSPAFRQDPRRLRSYQDLDAPEEEVTVIDYRSL
On to B1, for which the binding entry in assay [1] and in assay [2] was “no binding (tested: 20 nM)” each time.

The values are drawn from article PMC3799435, “Dissecting the interactions of SERRATE with RNA and DICER-LIKE 1 in Arabidopsis microRNA precursor processing” (Nucleic Acids Research, 2013).
